Data: patent publication US12419308B2, “Phenylpyrazole insecticide compounds and compositions” (priority 2023, dated 2025)
Some entries share one result that the patent states for a list of compounds.

Test system: Dermanyssus gallinae
Experiment: Antiparasitic efficacy on live chickens with natural mite infestation
Type: in vivo
Details: after five days of treatment; 0.25% (w/v) spray, 7.5 mg/kg once daily
Experimental: Two animals are treated with the compound of Example 1, and two animals are treated with Fipronil, while one animal is left untreated as a negative control. The infestation by D. gallinae is monitored by checking the density of mites in particular areas of the animal's bodies (feet, legs, and wings), comparing pre-treatment levels of infestation to post-treatment levels.
When all pests have been eliminated, a 100% pest control capability was achieved. In the case of some chemical products, when the pest was not fully eliminated, the disinfestation capacity was measured by averaging the number of infesting organisms located in three distinct areas of the treated animals, at the beginning of the treatment, and at the end of the treatment.

| Structure (SMILES) | Reduction of levels of mite infestations |
| --- | --- |
| CCC(=O)Nc1cc(C#N)nn1-c1c(Cl)cc(C(F)(F)F)cc1Cl [Example 3, N-(3-cyano-1-(2,6-dichloro-4-(trifluoromethyl)phenyl)-1H-pyrazol-5-yl)propionamide] | 5-10% |
| CC(=O)Nc1cc(C#N)nn1-c1c(Cl)cc(C(F)(F)F)cc1Cl [Example 2, N-(3-cyano-1-(2,6-dichloro-4-(trifluoromethyl)phenyl)-1H-pyrazol-5-yl)acetamide] | 5-10% |
